# Laboratory results reported in article PMC5696377.
# Protein sequences, listed by entry. Tags and fused reporters are not part of them.
# UniProt P25963: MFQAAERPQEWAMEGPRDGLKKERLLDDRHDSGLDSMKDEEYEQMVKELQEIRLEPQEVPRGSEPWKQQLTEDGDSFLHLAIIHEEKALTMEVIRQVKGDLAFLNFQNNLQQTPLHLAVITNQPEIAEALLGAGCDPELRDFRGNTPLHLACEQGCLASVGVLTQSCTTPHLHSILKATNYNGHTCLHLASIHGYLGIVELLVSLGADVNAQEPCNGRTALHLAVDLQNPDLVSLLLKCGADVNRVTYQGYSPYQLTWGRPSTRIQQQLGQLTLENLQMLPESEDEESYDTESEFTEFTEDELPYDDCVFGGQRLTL
# These are yes or no findings as the source states them, for the method shown. For some of these results: In cells and extracts the contact can be indirect. Some results given as binding are weak or reduced against the parent protein; the word gives no strength. For some of these results: Tags and fused reporters may be left off the sequences shown.
# B1: Morgana/chp-1 (CHORDC1 gene product) (protein, UniProt Q9UHD1 1-332)
# chain: MALLCYNRGCGQRFDPETNSDDACTYHPGVPVFHDALKGWSCCKRRTTDFSDFLSIVGCTKGRHNSEKPPEPVKPEVKTTEKKELCELKPKFQEHIIQAPKPVEAIKRPSPDEPMTNLELKISASLKQALDKLKLSSGNEENKKEEDNDEIKIGTSCKNGGCSKTYQGLESLEEVCVYHSGVPIFHEGMKYWSCCRRKTSDFNTFLAQEGCTKGKHMWTKKDAGKKVVPCRHDWHQTGGEVTISVYAKNSLPELSRVEANSTLLNVHIVFEGEKEFDQNVKLWGVIDVKRSYVTMTATKIEITMRKAEPMQWASLELPAAKKQEKQKDATTD
# B2: IKKβ (enzyme, UniProt O14920 1-756)
# chain: MSWSPSLTTQTCGAWEMKERLGTGGFGNVIRWHNQETGEQIAIKQCRQELSPRNRERWCLEIQIMRRLTHPNVVAARDVPEGMQNLAPNDLPLLAMEYCQGGDLRKYLNQFENCCGLREGAILTLLSDIASALRYLHENRIIHRDLKPENIVLQQGEQRLIHKIIDLGYAKELDQGSLCTSFVGTLQYLAPELLEQQKYTVTVDYWSFGTLAFECITGFRPFLPNWQPVQWHSKVRQKSEVDIVVSEDLNGTVKFSSSLPYPNNLNSVLAERLEKWLQLMLMWHPRQRGTDPTYGPNGCFKALDDILNLKLVHILNMVTGTIHTYPVTEDESLQSLKARIQQDTGIPEEDQELLQEAGLALIPDKPATQCISDGKLNEGHTLDMDLVFLFDNSKITYETQISPRPQPESVSCILQEPKRNLAFFQLRKVWGQVWHSIQTLKEDCNRLQQGQRAAMMNLLRNNSCLSKMKNSMASMSQQLKAKLDFFKTSIQIDLEKYSEQTEFGITSDKLLLAWREMEQAVELCGRENEVKLLVERMMALQTDIVDLQRSPMGRKQGGTLDDLEEQARELYRRLREKPRDQRTEGDSQEMVRLLLQAIQSFEKKVRVIYTQLSKTVVCKQKALELLPKVEEVVSLMNEDEKTVVRLQEKRQKELWNLLKIACSKVRGPVSGSPDSMNASRLSQPGQLMSQPSTASNSLPEPAKKSEELVAEAHNLCTLLENAIQDTVREQDQSFTALDWSWLQTEEEEHSCLEQAS
# B3: MBP-Morgana recombinant protein (protein, UniProt Q9D1P4 1-331)
# chain: MALLCYNRGCGQRFDPEANSDDACTYHPGVPVFHDALKGWSCCKRRTTDFSDFLSIVGCTKGRHNSEKPPEPVKPEVKTTEKKELSELKPKFQEHIIQAPKPVEAIKRPSPDEPMTNLELKISASLKQALDKLKLSSGSEEDKKEEDSDEIKIGTSCKNGGCSKTYQGLQSLEEVCVYHSGVPIFHEGMKYWSCCRRKTSDFNTFLAQEGCTRGKHVWTKKDAGKKVVPCRHDWHQTGGEVTISVYAKNSLPELSQVEANSTLLNVHIVFEGEKEFHQNVKLWGVIDVKRSYVTMTATKIEITMRKAEPMQWASLELPTTKKQEKQKDIAD
# Legend:
# [1] = target: T1, IKKβ (human (endogenous in MDA-MB-231, BT549)) (UniProt O14920); experiment: co-IP; immunoprecipitation of IKKβ or IKKα, immunoblot; IKKβ immunoprecipitation from MDA-MB-231 control and Morgana-silenced cells
# T1 sequence: B2 chain
# [2] = target: T2, IKKα (human (endogenous in MDA-MB-231, BT549)) (UniProt O15111); experiment: as above
# T2 sequence: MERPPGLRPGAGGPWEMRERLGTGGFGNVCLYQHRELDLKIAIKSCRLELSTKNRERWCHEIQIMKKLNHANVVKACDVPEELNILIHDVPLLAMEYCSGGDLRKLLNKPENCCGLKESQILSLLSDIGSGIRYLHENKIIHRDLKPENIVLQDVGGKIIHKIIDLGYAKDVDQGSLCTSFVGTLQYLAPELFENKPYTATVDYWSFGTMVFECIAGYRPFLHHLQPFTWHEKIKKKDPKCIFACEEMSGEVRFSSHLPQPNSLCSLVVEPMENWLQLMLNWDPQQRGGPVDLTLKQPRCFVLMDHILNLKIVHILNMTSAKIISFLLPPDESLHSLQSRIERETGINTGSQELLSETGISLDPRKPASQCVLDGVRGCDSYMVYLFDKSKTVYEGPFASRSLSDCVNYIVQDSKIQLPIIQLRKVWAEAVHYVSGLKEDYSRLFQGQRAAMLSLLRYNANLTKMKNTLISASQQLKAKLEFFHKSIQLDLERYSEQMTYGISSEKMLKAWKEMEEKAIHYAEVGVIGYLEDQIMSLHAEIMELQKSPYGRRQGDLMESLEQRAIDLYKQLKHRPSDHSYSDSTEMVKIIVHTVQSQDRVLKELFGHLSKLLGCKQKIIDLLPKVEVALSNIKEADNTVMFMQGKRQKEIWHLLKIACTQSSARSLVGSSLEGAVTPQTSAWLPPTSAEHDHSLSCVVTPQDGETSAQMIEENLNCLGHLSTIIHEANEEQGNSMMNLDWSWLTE
# [3] = target: T1, IKKβ (human (endogenous in MDA-MB-231, BT549)); experiment: SEC; total protein extracts of MDA-MB-231 (control and shMORG1) on Superose 6 10/300 GL, 25 mM Tris-HCl pH 8.0, 1 mM MgCl2, 10% glycerol; fractions analysed by Western blot
# [4] = target: T2, IKKα (human (endogenous in MDA-MB-231, BT549)); experiment: as above
# [5] = target: T3, Morgana/chp-1 (CHORDC1 gene product) (human (endogenous in MDA-MB-231, BT549)) (UniProt Q9UHD1); experiment: co-IP; immunoprecipitation with anti-Morgana antibody from selected gel filtration fractions (around 1000-900 kDa) of MDA-MB-231 extract, immunoblot
# T3 sequence: B1 chain
# [6] = target: T3, Morgana/chp-1 (CHORDC1 gene product) (human (endogenous in MDA-MB-231, BT549)); experiment: co-IP; immunoprecipitation of Morgana from MDA-MB-231 or BT549 extracts (lysis buffer 25 mM Tris-HCl pH 8, 1 mM MgCl2), antibody overnight at 4 °C, protein G Sepharose, 10 washes, immunoblot; also done in MDA-MB-231 silenced for Hsp90 or cdc37
# recombinant IκBα = recombinant IκBα (UniProt P25963); experiment: far-Western, overlay or dot blot; 1 µg recombinant protein run on SDS-PAGE, transferred to nitrocellulose, denatured and renatured in AC buffer with falling guanidine-HCl; membrane incubated with MBP-Morgana overnight at 4 °C; detected with primary and secondary antibody; both purified
binder,measurement,setting,value
B1,binding,[1],binds
same,binding,[2],binds
same,binding,[3],binds
same,binding,[4],binds
B2,binding,[5],binds
same,binding,[6],binds
B3,binding,recombinant IκBα,binds
